Laboratory results: PMC10733312
Results are given in words; binding and its absence hold for the method and conditions named. Binding seen in cells or lysates may run through a third protein. A yes stands for co-enrichment or nearness to the bait. Other partners may have been found. Where a sequence is shown, tags or fusion partners need not be part of it.

By UniProt entry, the sequences of proteins in these tests, tags left out.
UniProt P19474: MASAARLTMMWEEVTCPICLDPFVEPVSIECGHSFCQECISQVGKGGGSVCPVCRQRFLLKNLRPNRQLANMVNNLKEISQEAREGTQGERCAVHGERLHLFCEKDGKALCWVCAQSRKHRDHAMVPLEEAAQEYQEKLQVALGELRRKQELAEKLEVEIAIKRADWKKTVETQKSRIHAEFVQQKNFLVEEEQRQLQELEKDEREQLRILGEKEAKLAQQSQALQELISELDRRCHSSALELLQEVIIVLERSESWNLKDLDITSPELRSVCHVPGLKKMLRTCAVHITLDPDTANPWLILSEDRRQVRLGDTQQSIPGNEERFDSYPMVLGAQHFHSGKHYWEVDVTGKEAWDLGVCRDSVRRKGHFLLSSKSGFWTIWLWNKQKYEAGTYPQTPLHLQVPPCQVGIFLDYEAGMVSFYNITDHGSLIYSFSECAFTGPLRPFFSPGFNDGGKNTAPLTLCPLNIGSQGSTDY

Biological target: T1, Flag-Sohlh2 (UniProt Q9NX45)
T1 sequence: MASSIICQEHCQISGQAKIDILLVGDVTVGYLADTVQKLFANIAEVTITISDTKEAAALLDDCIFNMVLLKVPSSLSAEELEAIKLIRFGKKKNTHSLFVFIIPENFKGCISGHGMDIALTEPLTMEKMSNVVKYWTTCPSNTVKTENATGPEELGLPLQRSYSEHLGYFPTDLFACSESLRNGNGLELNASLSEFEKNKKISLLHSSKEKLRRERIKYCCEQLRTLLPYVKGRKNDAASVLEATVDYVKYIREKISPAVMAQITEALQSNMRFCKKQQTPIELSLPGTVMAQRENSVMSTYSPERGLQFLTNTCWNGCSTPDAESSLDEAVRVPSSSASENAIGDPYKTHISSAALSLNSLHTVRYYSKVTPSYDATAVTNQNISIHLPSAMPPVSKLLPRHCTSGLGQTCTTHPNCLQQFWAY
Assay: affinity purification with mass spectrometry; Coomassie-stained SDS-PAGE gel lanes sliced into bands, binding proteins measured by mass spectrometry (Maxis II); bait and cells not stated for this experiment

- binding: binds
Substance: E3 ubiquitin ligase TRIM21 (from UniProt P19474 1-475) (enzyme)
